Results are given in words; binding and its absence hold for the method and conditions named. Binding seen in cells or lysates may run through a third protein. Some binding calls cover weakened binding; strength is not graded here. Tags and fused reporters may be left off the sequences shown.
Target: T1, lipopolysaccharide binding protein (LBP) fused with 3X-FLAG (human) (UniProt P18428)
T1 sequence: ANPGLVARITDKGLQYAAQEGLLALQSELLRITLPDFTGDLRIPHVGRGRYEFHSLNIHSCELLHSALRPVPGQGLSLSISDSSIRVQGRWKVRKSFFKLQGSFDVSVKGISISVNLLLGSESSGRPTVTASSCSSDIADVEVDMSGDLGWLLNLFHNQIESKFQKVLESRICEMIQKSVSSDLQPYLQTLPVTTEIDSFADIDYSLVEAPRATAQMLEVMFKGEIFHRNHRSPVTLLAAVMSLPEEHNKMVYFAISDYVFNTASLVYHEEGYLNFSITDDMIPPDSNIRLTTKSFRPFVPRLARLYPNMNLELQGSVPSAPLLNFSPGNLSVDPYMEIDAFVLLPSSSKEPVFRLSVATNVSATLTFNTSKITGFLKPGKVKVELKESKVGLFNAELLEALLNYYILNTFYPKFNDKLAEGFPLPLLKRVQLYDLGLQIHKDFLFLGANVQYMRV
Experiment: co-IP; simultaneous overexpression of LBP and TLR4 in PMA-THP-1 cells; immunoblot; bait and antibodies not given

Amino acid sequences for entries named in this document (tags omitted). Residues count along the entry.
UniProt O00206, residues 24-839: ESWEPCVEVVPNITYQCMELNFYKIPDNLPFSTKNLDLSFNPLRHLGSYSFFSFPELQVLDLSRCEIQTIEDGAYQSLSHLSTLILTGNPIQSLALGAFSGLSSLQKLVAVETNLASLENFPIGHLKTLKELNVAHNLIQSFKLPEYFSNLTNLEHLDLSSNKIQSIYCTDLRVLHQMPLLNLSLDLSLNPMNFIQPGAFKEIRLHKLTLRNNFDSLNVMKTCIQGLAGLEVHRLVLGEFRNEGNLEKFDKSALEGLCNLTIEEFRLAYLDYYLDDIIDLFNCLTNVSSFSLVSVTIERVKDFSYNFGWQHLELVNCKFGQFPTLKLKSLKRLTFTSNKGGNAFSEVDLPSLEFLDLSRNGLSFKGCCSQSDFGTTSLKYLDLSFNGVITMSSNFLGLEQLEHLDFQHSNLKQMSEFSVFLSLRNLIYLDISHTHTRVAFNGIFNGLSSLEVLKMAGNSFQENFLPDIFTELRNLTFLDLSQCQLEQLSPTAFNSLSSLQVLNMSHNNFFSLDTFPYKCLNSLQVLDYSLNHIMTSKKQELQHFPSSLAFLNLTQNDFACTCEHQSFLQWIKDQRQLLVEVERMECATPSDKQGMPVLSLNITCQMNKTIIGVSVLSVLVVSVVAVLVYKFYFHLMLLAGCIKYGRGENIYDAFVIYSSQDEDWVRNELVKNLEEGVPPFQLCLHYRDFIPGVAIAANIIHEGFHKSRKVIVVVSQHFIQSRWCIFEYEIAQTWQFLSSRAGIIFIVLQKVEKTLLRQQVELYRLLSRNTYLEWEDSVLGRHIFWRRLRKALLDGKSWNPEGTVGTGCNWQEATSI

binding: binds
Substance: TLR4 fused with 3X-Flag (overexpression plasmid) (from UniProt O00206 24-839) (receptor)
